In this data set the test system is prostate cancer and adjacent benign tissues. Nature of the data set: Gene expression profiling of prostate tissues with oligonucleotide arrays U133A and U133B (Example II, TABLE 2). Further details: species or system human.

For the substance IGF1, the “Fold Change Met-Nrml” value (mRNA expression of the gene, metastatic prostate cancer relative to adjacent benign tissue, U133A and U133B arrays) is on record as 0.6048.

PRIMA1: the “Fold Change Gs-Nrml” value came to 0.8143 (fold-change in gene expression, Gleason grade 6 vs adjacent benign tissues (second Gs-Nrml column), U133A and U133B probe set average); 0.7741 (fold-change in gene expression, Gleason grade 9 vs adjacent benign tissues (first Gs-Nrml column), U133A and U133B probe set average). For the same substance, under “fold-change in gene expression, Metastatic vs adjacent benign tissues, U133A and U133B probe set average”, the “Fold Change Met-Nrml” value is given as 0.7443.
